Results are given in words; binding and its absence hold for the method and conditions named. Binding seen in cells or lysates may run through a third protein. Some binding calls cover weakened binding; strength is not graded here.
Target: ATM kinase (human (endogenous in HeLa or C3ABR)) (UniProt Q13315)
Assay: co-IP; endogenous proteins; lysates of cells mock irradiated or 6 Gy IR (1 hr), immunoprecipitated with anti-ATM, anti-CHD4 or IgG, protein A and G beads; lysis buffer 50 mM Tris-HCl pH 7.4, 150 mM NaCl, 0.2% Triton-X 100, 0.3% Igepal CA-630; western blot

Protein sequences, listed by entry. Tags and fused reporters are not part of them.
UniProt Q13315: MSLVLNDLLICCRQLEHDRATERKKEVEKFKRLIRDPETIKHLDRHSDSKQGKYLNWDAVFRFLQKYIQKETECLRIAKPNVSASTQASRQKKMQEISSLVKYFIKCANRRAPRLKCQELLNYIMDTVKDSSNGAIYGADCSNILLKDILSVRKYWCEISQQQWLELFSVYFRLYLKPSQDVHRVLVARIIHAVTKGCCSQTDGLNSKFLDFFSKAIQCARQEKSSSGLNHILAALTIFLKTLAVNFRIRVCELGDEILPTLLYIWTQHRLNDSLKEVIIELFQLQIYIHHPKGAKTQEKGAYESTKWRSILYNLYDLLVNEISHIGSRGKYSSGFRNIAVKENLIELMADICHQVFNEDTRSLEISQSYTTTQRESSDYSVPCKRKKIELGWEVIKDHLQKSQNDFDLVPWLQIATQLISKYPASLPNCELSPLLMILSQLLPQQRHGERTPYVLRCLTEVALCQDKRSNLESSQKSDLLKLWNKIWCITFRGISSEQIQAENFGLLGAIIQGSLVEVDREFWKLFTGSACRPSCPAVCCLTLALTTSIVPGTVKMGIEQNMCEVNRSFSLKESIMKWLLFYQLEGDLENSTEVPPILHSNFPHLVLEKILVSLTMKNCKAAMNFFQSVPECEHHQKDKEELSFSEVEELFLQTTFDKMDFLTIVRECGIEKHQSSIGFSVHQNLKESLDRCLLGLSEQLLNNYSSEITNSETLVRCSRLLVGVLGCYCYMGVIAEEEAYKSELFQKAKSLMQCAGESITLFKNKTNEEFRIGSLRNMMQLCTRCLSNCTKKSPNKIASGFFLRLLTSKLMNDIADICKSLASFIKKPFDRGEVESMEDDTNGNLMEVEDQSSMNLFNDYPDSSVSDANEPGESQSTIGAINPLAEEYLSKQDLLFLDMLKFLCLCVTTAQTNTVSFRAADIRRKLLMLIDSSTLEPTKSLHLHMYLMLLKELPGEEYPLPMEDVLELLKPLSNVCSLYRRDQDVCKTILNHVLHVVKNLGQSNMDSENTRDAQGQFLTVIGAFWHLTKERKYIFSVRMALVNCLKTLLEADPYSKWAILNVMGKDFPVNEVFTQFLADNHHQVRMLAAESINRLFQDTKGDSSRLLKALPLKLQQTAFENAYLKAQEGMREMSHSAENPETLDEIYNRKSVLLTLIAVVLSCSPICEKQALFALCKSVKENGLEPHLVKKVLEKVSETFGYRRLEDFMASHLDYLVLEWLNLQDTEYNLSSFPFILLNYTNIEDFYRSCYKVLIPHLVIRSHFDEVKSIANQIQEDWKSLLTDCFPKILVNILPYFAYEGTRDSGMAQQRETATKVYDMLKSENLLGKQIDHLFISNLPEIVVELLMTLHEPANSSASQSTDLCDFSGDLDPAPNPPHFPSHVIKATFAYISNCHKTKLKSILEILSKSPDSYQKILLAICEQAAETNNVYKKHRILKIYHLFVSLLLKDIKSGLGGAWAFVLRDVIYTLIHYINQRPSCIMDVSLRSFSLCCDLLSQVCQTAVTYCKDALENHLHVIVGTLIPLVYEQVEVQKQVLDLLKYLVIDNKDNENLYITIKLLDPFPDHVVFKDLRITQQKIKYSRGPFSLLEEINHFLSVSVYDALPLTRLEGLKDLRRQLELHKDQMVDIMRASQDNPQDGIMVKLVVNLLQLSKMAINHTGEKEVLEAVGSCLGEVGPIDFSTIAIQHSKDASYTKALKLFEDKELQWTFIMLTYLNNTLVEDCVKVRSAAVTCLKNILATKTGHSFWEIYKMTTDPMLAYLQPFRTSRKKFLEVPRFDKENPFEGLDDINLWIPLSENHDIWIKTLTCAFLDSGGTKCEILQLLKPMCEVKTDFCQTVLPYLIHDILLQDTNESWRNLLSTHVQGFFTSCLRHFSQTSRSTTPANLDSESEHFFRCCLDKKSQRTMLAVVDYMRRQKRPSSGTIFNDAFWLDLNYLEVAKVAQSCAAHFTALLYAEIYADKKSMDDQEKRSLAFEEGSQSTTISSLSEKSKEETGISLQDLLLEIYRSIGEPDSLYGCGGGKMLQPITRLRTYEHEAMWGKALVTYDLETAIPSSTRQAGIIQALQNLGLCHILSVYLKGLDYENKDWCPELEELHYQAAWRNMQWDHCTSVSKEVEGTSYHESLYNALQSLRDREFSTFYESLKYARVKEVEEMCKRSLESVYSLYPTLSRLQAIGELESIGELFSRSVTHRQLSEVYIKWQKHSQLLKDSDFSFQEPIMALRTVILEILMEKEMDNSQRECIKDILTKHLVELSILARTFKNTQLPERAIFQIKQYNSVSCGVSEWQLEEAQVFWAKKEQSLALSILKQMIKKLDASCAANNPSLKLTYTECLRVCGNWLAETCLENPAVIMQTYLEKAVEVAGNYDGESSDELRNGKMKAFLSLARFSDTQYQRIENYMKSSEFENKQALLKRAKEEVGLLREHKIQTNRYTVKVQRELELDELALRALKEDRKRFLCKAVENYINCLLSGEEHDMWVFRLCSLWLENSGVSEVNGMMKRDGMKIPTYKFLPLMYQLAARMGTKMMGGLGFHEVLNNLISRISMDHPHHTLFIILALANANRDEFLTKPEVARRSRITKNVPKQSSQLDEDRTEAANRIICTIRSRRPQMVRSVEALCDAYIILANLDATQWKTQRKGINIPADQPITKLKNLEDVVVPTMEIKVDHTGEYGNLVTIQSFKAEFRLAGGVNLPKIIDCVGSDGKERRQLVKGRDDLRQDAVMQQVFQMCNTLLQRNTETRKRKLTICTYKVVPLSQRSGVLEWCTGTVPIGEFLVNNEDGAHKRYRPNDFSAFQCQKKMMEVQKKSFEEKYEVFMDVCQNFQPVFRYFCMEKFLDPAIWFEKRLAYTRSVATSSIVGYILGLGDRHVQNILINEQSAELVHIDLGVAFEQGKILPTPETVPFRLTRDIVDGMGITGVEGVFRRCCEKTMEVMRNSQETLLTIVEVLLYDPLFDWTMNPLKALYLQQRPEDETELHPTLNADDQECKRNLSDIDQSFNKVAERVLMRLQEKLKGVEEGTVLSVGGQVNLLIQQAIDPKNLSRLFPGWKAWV
UniProt Q14839: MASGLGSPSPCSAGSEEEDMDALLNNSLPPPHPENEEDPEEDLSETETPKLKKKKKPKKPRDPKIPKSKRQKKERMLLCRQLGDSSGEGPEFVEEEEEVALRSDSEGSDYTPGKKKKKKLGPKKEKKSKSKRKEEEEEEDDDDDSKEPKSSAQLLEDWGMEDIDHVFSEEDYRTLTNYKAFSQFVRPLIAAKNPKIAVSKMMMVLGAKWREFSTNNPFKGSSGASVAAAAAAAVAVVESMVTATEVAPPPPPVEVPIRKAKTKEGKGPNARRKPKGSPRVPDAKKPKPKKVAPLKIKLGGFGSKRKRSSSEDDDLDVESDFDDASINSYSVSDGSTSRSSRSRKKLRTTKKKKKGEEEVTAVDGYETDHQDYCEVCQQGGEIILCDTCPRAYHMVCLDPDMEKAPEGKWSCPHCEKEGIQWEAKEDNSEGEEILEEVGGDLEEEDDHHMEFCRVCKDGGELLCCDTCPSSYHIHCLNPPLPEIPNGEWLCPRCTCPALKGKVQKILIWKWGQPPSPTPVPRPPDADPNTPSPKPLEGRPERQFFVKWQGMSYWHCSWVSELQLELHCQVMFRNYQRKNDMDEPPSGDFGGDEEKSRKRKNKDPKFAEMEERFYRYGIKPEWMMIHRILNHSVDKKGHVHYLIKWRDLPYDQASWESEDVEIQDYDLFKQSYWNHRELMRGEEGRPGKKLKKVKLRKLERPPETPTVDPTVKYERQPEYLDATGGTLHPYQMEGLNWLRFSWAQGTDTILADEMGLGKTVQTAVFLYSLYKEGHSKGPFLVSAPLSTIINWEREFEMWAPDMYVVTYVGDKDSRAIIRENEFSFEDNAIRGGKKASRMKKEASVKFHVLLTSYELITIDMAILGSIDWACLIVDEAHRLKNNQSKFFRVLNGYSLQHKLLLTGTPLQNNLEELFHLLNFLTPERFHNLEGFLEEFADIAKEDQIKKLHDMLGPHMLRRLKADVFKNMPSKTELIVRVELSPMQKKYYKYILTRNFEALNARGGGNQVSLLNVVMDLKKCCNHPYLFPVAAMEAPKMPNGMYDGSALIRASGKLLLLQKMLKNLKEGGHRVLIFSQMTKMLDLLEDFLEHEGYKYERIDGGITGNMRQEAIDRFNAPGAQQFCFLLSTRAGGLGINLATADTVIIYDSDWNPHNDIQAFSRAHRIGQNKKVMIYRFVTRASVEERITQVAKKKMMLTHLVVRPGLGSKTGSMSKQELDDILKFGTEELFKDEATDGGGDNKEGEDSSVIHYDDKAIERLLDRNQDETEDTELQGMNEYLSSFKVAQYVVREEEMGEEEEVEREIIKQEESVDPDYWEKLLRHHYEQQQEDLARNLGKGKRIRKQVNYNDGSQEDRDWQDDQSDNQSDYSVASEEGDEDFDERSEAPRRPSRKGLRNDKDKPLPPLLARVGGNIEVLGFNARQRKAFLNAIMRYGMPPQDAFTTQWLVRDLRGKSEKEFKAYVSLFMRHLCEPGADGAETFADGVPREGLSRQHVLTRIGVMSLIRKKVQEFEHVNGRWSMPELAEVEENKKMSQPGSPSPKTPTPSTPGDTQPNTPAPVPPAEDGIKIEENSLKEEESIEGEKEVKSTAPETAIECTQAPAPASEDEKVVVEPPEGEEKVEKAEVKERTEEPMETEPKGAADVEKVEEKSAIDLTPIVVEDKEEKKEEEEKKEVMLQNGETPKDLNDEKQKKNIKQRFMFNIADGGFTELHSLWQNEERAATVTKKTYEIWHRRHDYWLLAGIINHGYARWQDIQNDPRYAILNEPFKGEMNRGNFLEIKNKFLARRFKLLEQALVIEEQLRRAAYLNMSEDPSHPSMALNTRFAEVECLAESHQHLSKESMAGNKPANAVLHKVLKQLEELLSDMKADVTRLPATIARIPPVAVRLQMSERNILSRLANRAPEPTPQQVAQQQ

binding: binds
Substance: chromodomain helicase DNA-binding protein (CHD4) (from UniProt Q14839 1-1912)

From publication PMC3035021
